Measurements: article PMC5333915
Results are given in words; binding and its absence hold for the method and conditions named. Some binding calls cover weakened binding; strength is not graded here. Where a sequence is shown, tags or fusion partners need not be part of it.

Molecular target: Suppressor of Gene Silencing 3 from Nicotiana benthamiana (NbSGS3), GAL4 two-hybrid fusion (Nicotiana benthamiana) (UniProt X4YFK1)
Test: two-hybrid; GAL4 system (pGADT7 AD, pGBKT7 BD) in yeast; reporter genes HIS3 and ADE2; growth on SD/Leu-Trp-His selection plates with 5 mM 3-AT; serial 10-fold dilutions

B1: Suppressor of Gene Silencing 3 from Nicotiana benthamiana (NbSGS3), GAL4 two-hybrid fusion (protein, UniProt X4YFK1 1-635)
chain: MSSSKGVGKSSAKQKAICETTTPTVDEISLGVGDMGFNSEQNDGWEVYARKTKNKSGSSAGKQWVPQNPSQKTWGNQNAKAWGHPDVVRKLGMRNNVGPGQGSRNNWSTPIDPRKPAGRDNSRPQLYDGGLGNCYTPSPAAVPPALKNGWDWSARAASTDPKEDQDASPVADSVKGSEHDGEDNESDFLDESDDDLRSDEFDSDVAEMSYETRKKNRWIKELFESLESLAVTEINDPERQWHCPACKGGPGAIEWFTGLQSLMTHAKTKGVRVKIHRELAELLEEELREIGTSVVPPGEVYGRWDGIEFKDKEIVWPPMVIIMNTRHDKGENDKWIGMGNQELLEYFSSYAAVKARHSYGPQGHRGMSVLIFEASAVGYIEADRLHEHFSENGRDRDAWERRAARFYSGGKRLLYGYMAEKRDIDSFNQHSPGKSRLKFEMRSYQEAVGNPAKQMMEDNQQLNWFKNKAAKHQMQAKALEQSLTLVSEKHRQTLEENKIVRLKTKIHHEQIKEEMEYQEQFFKDQIQIIHDARTAEEEKFEKVQQEQREMAQQSNASTSSVEDHRVRAERVAKFIKLQDKEMEEFVEERENLLRSHEDRIAALRRKYWEAEVELEKNFDLELAKLMEKYSPEQSQ
**Q.** B1 was tested. Which binding did it give?
**A.** Its binding is “binds”.
